Measurements: patent US20120201757A1
No constants are given. Whether binding was seen depends on the method and setting. Some binding calls cover weakened binding; strength is not graded here.

Sequences of proteins named here, by UniProt entry; tags and fusion partners are left off. A change or cut given only in a name is not applied to a line headed by its entry. Residues count along the entry.
UniProt Q07954: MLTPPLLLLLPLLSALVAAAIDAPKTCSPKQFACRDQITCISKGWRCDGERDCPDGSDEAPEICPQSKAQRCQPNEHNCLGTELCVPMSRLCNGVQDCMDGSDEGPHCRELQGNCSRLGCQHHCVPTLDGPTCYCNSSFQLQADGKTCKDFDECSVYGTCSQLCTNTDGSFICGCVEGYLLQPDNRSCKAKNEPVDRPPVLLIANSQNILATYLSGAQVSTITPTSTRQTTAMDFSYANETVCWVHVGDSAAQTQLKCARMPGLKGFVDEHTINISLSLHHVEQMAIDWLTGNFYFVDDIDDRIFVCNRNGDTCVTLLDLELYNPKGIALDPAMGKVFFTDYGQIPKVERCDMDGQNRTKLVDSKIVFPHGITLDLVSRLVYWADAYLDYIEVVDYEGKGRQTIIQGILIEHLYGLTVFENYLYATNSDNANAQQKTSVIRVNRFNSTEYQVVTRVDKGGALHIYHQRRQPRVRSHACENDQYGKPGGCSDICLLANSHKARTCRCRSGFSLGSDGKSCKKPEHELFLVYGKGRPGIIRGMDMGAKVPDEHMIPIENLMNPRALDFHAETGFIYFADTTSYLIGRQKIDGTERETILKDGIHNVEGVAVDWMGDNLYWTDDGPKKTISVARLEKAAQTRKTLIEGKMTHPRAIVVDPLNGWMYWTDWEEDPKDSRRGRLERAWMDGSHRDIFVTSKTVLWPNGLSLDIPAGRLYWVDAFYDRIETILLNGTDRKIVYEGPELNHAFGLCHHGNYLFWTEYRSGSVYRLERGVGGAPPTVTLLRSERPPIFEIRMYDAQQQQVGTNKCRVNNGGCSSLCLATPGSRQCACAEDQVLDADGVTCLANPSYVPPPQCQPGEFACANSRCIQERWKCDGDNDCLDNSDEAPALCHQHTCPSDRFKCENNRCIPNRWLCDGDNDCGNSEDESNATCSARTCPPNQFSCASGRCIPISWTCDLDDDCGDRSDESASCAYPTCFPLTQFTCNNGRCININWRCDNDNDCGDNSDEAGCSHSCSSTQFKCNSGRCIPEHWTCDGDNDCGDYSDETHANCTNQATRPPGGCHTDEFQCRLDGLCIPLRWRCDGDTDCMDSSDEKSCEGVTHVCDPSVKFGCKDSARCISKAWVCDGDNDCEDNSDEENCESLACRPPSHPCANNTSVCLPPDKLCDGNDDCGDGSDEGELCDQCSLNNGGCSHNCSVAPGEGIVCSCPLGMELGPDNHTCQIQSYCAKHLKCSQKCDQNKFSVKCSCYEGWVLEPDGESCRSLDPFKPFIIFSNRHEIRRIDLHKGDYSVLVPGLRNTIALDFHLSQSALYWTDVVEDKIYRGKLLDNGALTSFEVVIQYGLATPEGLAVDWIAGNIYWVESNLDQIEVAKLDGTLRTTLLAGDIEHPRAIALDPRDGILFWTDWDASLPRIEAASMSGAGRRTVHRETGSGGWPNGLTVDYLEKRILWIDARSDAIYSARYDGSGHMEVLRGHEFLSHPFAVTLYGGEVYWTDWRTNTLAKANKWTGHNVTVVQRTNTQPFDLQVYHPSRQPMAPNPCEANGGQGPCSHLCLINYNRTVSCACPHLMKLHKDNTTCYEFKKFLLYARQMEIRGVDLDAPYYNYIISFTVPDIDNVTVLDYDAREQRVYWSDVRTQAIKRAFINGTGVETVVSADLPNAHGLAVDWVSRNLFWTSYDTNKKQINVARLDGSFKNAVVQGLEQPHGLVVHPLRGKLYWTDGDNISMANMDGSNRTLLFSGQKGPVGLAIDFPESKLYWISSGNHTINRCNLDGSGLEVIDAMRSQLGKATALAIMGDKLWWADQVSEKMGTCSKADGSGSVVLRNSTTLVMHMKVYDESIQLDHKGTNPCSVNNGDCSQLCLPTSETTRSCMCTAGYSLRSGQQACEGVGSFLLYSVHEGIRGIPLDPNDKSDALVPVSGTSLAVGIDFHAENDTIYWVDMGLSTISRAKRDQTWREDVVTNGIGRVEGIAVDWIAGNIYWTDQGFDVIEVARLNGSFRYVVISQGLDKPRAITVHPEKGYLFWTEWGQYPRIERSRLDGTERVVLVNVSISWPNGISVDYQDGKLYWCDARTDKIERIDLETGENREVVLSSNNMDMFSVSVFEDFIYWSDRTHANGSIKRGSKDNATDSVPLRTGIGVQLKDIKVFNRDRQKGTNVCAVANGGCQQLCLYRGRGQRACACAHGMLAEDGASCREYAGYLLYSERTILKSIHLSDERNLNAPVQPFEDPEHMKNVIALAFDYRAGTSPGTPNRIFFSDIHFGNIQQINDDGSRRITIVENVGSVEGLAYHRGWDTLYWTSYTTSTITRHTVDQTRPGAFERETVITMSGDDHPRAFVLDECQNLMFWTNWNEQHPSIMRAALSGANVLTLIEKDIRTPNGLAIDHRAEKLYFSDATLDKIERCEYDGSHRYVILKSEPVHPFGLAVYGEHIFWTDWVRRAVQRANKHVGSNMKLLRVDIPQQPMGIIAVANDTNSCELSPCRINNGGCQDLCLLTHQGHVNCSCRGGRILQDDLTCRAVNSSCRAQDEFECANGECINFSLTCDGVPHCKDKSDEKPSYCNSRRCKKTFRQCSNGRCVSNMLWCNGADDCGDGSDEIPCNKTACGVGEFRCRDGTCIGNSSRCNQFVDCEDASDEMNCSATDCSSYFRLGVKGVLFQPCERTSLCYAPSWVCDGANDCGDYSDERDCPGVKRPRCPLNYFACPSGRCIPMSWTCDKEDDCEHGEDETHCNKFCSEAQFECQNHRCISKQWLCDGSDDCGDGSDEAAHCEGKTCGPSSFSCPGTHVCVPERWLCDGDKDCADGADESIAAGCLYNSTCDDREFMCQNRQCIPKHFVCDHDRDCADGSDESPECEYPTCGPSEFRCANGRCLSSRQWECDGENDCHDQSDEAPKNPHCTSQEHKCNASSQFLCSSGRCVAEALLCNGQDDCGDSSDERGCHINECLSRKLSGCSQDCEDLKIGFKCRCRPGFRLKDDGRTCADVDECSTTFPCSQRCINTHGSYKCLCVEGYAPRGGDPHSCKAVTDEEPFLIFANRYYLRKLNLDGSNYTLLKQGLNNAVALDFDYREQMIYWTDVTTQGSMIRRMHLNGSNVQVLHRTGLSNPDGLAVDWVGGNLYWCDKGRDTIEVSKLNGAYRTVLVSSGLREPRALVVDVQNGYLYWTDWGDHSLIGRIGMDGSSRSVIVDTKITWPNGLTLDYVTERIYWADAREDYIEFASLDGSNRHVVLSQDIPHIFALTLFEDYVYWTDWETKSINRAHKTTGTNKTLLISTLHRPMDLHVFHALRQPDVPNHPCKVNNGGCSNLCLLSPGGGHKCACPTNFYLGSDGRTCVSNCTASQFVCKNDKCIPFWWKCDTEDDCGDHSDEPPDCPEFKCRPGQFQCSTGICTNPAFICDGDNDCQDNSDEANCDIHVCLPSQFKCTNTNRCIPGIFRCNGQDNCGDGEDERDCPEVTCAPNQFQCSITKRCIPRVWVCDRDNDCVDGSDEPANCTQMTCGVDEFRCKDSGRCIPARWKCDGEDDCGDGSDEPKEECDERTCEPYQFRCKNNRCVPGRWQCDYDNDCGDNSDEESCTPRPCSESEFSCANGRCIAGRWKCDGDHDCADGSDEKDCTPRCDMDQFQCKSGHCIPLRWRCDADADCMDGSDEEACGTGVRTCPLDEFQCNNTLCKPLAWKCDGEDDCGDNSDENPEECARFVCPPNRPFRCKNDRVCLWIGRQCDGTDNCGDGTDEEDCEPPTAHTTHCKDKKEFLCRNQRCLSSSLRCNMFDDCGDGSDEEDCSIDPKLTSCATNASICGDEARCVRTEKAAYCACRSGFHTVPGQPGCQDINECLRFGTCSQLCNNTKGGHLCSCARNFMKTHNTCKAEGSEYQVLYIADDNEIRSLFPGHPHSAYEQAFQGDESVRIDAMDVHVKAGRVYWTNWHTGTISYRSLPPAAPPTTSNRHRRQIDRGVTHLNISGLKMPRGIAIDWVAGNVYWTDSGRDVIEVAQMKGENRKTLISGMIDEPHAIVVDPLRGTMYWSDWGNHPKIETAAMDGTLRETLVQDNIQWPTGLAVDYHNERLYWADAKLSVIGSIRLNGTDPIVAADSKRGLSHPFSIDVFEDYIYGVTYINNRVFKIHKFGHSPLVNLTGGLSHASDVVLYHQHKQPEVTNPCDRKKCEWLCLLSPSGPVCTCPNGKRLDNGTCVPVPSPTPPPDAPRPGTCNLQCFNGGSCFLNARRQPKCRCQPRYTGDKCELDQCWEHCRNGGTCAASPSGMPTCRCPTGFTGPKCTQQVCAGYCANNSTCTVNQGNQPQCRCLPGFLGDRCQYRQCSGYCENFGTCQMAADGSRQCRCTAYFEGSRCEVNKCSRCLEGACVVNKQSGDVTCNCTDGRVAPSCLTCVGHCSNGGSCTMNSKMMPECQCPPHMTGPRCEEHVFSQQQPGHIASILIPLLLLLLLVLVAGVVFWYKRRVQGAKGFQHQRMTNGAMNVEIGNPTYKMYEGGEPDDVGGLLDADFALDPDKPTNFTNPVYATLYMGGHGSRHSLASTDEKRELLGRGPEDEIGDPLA
UniProt P14780, residues 20-707: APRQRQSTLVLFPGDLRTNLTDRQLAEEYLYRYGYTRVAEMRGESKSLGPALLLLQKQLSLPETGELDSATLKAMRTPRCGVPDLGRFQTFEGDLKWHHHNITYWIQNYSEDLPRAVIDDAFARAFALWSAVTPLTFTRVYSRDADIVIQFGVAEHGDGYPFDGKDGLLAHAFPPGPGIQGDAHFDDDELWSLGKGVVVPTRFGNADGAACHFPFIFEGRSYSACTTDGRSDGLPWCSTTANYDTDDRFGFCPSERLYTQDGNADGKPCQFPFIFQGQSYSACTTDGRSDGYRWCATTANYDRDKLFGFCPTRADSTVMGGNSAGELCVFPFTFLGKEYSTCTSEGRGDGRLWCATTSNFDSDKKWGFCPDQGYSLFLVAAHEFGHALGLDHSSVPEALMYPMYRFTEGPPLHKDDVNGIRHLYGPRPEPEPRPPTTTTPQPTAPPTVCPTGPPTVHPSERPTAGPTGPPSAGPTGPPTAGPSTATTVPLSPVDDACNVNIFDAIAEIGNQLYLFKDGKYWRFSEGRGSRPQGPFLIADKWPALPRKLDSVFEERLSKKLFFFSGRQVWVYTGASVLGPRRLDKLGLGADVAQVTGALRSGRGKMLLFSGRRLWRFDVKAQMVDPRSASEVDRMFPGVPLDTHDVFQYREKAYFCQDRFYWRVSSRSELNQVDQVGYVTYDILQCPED

Molecular target: GAR-LRPIV (human) (UniProt Q07954)
Test: plate binding assay, Abs (450nm), ligand titrated 0-200 nM on immobilized GAR-LRPIV

## MMP9 (from UniProt P14780 20-707) (enzyme)
  binding: binds
